Measurements published in PubChem BioAssay AID248 (DTP/NCI, 2004).
The list is a part of this screen's results and no random one: it gathers tests that were run many times, whatever their T/C, doses with no T/C, and many T/C values between a quarter and a half above the control. Further doses and runs are listed elsewhere. T/C gives the treated animals as a percentage of the vehicle group. Some doses have a count of surviving animals in place of a T/C: the source files T/C as zero there, which appears to mark a toxic dose or a test without result, not a measured value. Some survivor counts are full or nearly so, which does not show that the dose was tolerated: survival well below the control is almost never listed, so the zero probably covers shortened survival too. Survivors were counted at the toxicity check, usually on the fifth day, unless a day is given; later deaths do not show. Schedule codes are those of the source, read here as Q, the interval in days (D) or hours (H), X, the number of doses. Some doses were run more than once; the results are listed from low to high. Some schedule codes hold Z or #, which are not explained here. For survival time, this PubChem deposit counts one and a half times the control or more as active, and values a quarter to a half above the control carry no call in these data; other NCI protocols may use other cut-offs. Marks such as (2×) count equal records among those shown. Some T/C values carry the count of animals alive at the toxicity check (mostly the fifth day); without a count, all were alive then.

System: L1210 leukemia ip in BDF1 mice, survival T/C
Experiment: NCI In Vivo Anticancer Drug Screen. Data for tumor model L1210 Leukemia (intraperitoneal) in B6D2F1 (BDF1) mice
Conditions: T/C endpoint: mean survival time, higher T/C = longer survival
[1] = dose: 120.0 mg/kg/injection, schedule: Q01DX Z (ip), vehicle: saline
[2] = dose: 180.0 mg/kg/injection, schedule: Q01DX Z (ip), vehicle: saline
[3] = dose: 212.0 mg/kg/injection, schedule: Q01DX Z (oral), vehicle: saline
[4] = dose: 240.0 mg/kg/injection, schedule: Q01DX Z (ip), vehicle: saline
[5] = dose: 250.0 mg/kg/injection, schedule: Q01DX001 (ip), vehicle: saline
[6] = dose: 270.0 mg/kg/injection, schedule: Q01DX Z (ip), vehicle: carboxymethylcellulose (CMC)
[7] = dose: 270.0 mg/kg/injection, schedule: Q01DX Z (ip), vehicle: saline

CN(C)c1ccc(Nc2c3ccccc3nc3ccccc23)cc1
T/C (dose: 120.0 mg/kg/injection, schedule: Q01DX Z (ip), vehicle: carboxymethylcellulose (CMC)): 147 % of control
survivor count (dose: 120.0 mg/kg/injection, schedule: Q01DX Z (ip), vehicle: methylcellulose (MC)): 4 of 6 and 5 of 6
survivor count (dose: 120.0 mg/kg/injection, schedule: Q01DX Z (ip), vehicle: olive oil, sesame oil, peanut oil): 1 of 6
T/C [1]: 90, 105 (2×), 109, 154, 160, 174, 180 % of control
survivor count [1]: 6 of 6
T/C (dose: 120.0 mg/kg/injection, schedule: Q01DX Z (oral), vehicle: saline): 142 % of control
T/C (dose: 120.0 mg/kg/injection, schedule: Q01DX Z (sc), vehicle: olive oil, sesame oil, peanut oil): 132 % of control
T/C (dose: 125.0 mg/kg/injection, schedule: Q01DX001 (ip), vehicle: saline): 125 % of control
T/C (dose: 140.0 mg/kg/injection, schedule: Q01DX Z (oral), vehicle: saline): 128 % of control (2×)
T/C (dose: 150.0 mg/kg/injection, schedule: Q03DX006 (oral), vehicle: saline): 133 % of control
T/C (dose: 159.0 mg/kg/injection, schedule: Q01DX Z (ip), vehicle: saline): 125 % of control
survivor count (dose: 160.0 mg/kg/injection, schedule: Q01DX005 (ip), vehicle: saline): 0 of 10
survivor count (dose: 160.0 mg/kg/injection, schedule: Q01DX009 (ip), vehicle: saline): 0 of 10
survivor count (dose: 180.0 mg/kg/injection, schedule: Q01DX007 (iv), vehicle: saline): 0 of 6
survivor count (dose: 180.0 mg/kg/injection, schedule: Q01DX009 (ip), vehicle: saline): 0 of 6 and 1 of 6
survivor count (dose: 180.0 mg/kg/injection, schedule: Q01DX Z (ip), vehicle: methylcellulose (MC)): 2 of 6 and 6 of 6
T/C [2]: 87, 106, 109, 121, 141, 170 % of control
survivor count [2]: 3 of 6 and 6 of 6
survivor count (dose: 200.0 mg/kg/injection, schedule: Q01DX001 (ip), vehicle: saline): 0 of 10
survivor count (dose: 200.0 mg/kg/injection, schedule: Q01DX005 (ip), vehicle: other): 0 of 6
survivor count (dose: 200.0 mg/kg/injection, schedule: Q01DX009 (ip), vehicle: saline): 3 of 6 and 6 of 6
T/C (dose: 200.0 mg/kg/injection, schedule: Q01DX Z (im), vehicle: saline): 143 % of control
T/C (dose: 200.0 mg/kg/injection, schedule: Q04DX003 (ip), vehicle: Klucel (hydroxypropylcellulose) (HPC)): 145 % of control
survivor count (dose: 200.0 mg/kg/injection, schedule: Q04DX003 (ip), vehicle: other): 3 of 6
survivor count (dose: 200.0 mg/kg/injection, schedule: Q04DX003 (ip), vehicle: saline): 0 of 10 and 3 of 6
survivor count (dose: 200.0 mg/kg/injection, schedule: Q#A X Z (oral), vehicle: saline): 6 of 6
T/C [3]: 128 % of control
survivor count [3]: 5 of 6
survivor count (dose: 240.0 mg/kg/injection, schedule: Q01DX Z (ip), vehicle: olive oil, sesame oil, peanut oil): 0 of 6
T/C [4]: 146 % of control
survivor count [4]: 4 of 6
survivor count (dose: 240.0 mg/kg/injection, schedule: Q01DX Z (oral), vehicle: olive oil, sesame oil, peanut oil): 3 of 6
T/C (dose: 240.0 mg/kg/injection, schedule: Q01DX Z (sc), vehicle: olive oil, sesame oil, peanut oil): 146 % of control
T/C (dose: 240.0 mg/kg/injection, schedule: Q01DX Z (sc), vehicle: saline): 136 % of control
T/C (dose: 250.0 mg/kg/injection, schedule: Q01DX001 (ip), vehicle: other): 132 % of control
T/C [5]: 135 % of control
survivor count [5]: 2 of 6
T/C [6]: 90 and 100 % of control
survivor count [6]: 6 of 6 and 7 of 7
survivor count (dose: 270.0 mg/kg/injection, schedule: Q01DX Z (ip), vehicle: methylcellulose (MC)): 1 of 6 and 6 of 6
T/C [7]: 103 and 124 % of control
survivor count [7]: 0 of 6 and 6 of 6
T/C (dose: 300.0 mg/kg/injection, schedule: Q03DX006 (oral), vehicle: saline): 131 % of control
survivor count (dose: 320.0 mg/kg/injection, schedule: Q01DX Z (oral), vehicle: saline): 5 of 6
T/C (dose: 350.0 mg/kg/injection, schedule: Q01DX001 (oral), vehicle: saline): 130 % of control
T/C (dose: 360.0 mg/kg/injection, schedule: Q01DX Z (ip), vehicle: saline): 144 % of control
T/C (dose: 371.0 mg/kg/injection, schedule: Q01DX Z (ip), vehicle: saline): 130 % of control
survivor count (dose: 400.0 mg/kg/injection, schedule: Q01DX001 (ip), vehicle: saline): 0 of 10
survivor count (dose: 400.0 mg/kg/injection, schedule: Q01DX Z (ip), vehicle: carboxymethylcellulose (CMC)): 6 of 6 and 7 of 7
survivor count (dose: 400.0 mg/kg/injection, schedule: Q04DX003 (ip), vehicle: other): 2 of 6 and 4 of 6
survivor count (dose: 400.0 mg/kg/injection, schedule: Q04DX003 (ip), vehicle: saline): 0 of 10, 0 of 6, 3 of 6
survivor count (dose: 400.0 mg/kg/injection, schedule: Q06HX012 (ip), vehicle: saline): 0 of 10
survivor count (dose: 400.0 mg/kg/injection, schedule: Q#A X Z (oral), vehicle: saline): 4 of 6
survivor count (dose: 480.0 mg/kg/injection, schedule: Q01DX Z (ip), vehicle: olive oil, sesame oil, peanut oil): 0 of 6
survivor count (dose: 480.0 mg/kg/injection, schedule: Q01DX Z (ip), vehicle: saline): 0 of 6
survivor count (dose: 480.0 mg/kg/injection, schedule: Q01DX Z (oral), vehicle: olive oil, sesame oil, peanut oil): 1 of 6
survivor count (dose: 480.0 mg/kg/injection, schedule: Q01DX Z (oral), vehicle: saline): 1 of 6
survivor count (dose: 480.0 mg/kg/injection, schedule: Q01DX Z (sc), vehicle: olive oil, sesame oil, peanut oil): 2 of 6
T/C (dose: 500.0 mg/kg/injection, schedule: Q01DX001 (ip), vehicle: saline): 132 [4 of 6 alive] and 148 % of control [4 of 6 alive]
T/C (dose: 560.0 mg/kg/injection, schedule: Q01DX Z (ip), vehicle: saline): 130 % of control
survivor count (dose: 600.0 mg/kg/injection, schedule: Q01DX Z (ip), vehicle: carboxymethylcellulose (CMC)): 6 of 7 and 6 of 6
T/C (dose: 700.0 mg/kg/injection, schedule: Q01DX001 (oral), vehicle: saline): 148 % of control
T/C (dose: 700.0 mg/kg/injection, schedule: Q07DX003 (oral), vehicle: saline): 134 % of control [5 of 6 alive]
survivor count (dose: 720.0 mg/kg/injection, schedule: Q01DX Z (oral), vehicle: saline): 1 of 6
survivor count (dose: 960.0 mg/kg/injection, schedule: Q01DX Z (sc), vehicle: olive oil, sesame oil, peanut oil): 2 of 6
T/C (dose: 960.0 mg/kg/injection, schedule: Q01DX Z (sc), vehicle: saline): 133 % of control
survivor count (dose: 1000.0 mg/kg/injection, schedule: Q01DX001 (ip), vehicle: other): 0 of 6
survivor count (dose: 1000.0 mg/kg/injection, schedule: Q01DX001 (ip), vehicle: saline): 0 of 6
survivor count (dose: 1200.0 mg/kg/injection, schedule: Q03DX006 (oral), vehicle: saline): 3 of 6
survivor count (dose: 1400.0 mg/kg/injection, schedule: Q01DX001 (oral), vehicle: saline): 3 of 6
survivor count (dose: 1400.0 mg/kg/injection, schedule: Q07DX003 (oral), vehicle: saline): 2 of 6
